# Results of single-concentration screens

The values are deposited in ChEMBL (CHEMBL3988442, “University of Dundee, Small-Polar-MMV Screening Library” (2021)).

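Whole-parasite assay of Trypanosoma brucei over 72 hours; the read-out is not stated. Tested at 30 µM. Direction is inferred from retests: higher values go with stronger inhibition. Values scatter widely below zero; nearly all retest evidence comes from the higher of the two concentrations used. Size under these conditions: about 64,000 compounds, about 940 of them at 50% or above in at least one test.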

Each number is a percent effect as filed. How 0% and 100% were set is not recorded. Most values in the screen are low, and negative values occur. The compounds are a random part of those screened.

SMILES,percent effect
CC(=O)N1CCC(NC(=O)NCCCc2cn[nH]c2C)CC1,-51.9%
Cn1cc(C[C@H]2[C@H](O)CCN2C(=O)C2CCOCC2)cn1,-37.45%
Cc1nnc(CN(Cc2cccc3c2OCO3)CC2CCCO2)n1C (stereo not shown),0.7043%
Cc1sc(C(=O)O)cc1S(=O)(=O)Nc1c(F)cccc1-n1cccn1,45.46%
Cc1cccc(=O)n1CCCNc1nc(N(C)C)nc2c1CCNCC2,10.36%
O=C(c1ccc(S(=O)(=O)N2CCNCC2)cc1)N1CCCC(O)C1 (stereo not shown),-9.166%
O=C(c1ccccc1OCC1CC1)N1CCCC1Cn1cccn1 (stereo not shown),-8.641%
CNC(=O)c1csc(-c2cccnc2)n1,-0.3329%
Cc1nc(C)n(CCC(=O)NCC2CCCOC2)n1 (stereo not shown),-29.57%
CC(C)c1cc(NCC(O)CO)n2nccc2n1 (stereo not shown),8.25%
O=C(C1CCOC1)N1CC[C@@H](O)[C@@H]1Cc1ccccc1 (stereo partly shown),3.331%
COc1ccc(-c2cnc(N(C)C)nc2C2CNCCO2)cc1.Cl (stereo not shown),1.186%
CCOc1ccc(CC(=O)N2CCN(c3nccn3C)CC2)cc1.Cl,48.81%
O=C(c1ccnnc1)N1CCc2ncnc(C3CCOC3)c2CC1 (stereo not shown),-22.29%
O=C(Nc1cccc2c1CCCC2)C1CCCN1c1nccs1 (stereo not shown),15.55%
CCCn1nnnc1COC(=O)C1COc2ccccc2O1 (stereo not shown),-64.46%
O=C(O)C(F)(F)F.[H][C@@]12CCN(c3ncccn3)C[C@@]1([H])O[C@@H](C(=O)NCc1ccco1)C2,-6.675%
NC(=O)CN1CCN(CC2CC2)c2ccccc21,-14.61%
Cc1cc(C)n(C2CN(Cc3ccc(C(=O)N4CCCC4)cc3)C2)n1,-27.46%
CCC1CCCCN1C(=O)c1ccc2[nH]nnc2c1 (stereo not shown),-2.797%
O=C(NCCN1C(=O)c2ccccc2C1=O)c1scnc1Cl,-2.342%
Cc1nc(C2CCCN2C(=O)CCc2ccc(F)cc2)ncc1C(N)=O (stereo not shown),11.86%
O=C(O)C(F)(F)F.[H][C@@]12CCN(c3ccncn3)[C@]1([H])CC[C@@H](C(=O)N1CCCCO1)O2,-55.7%
CCOc1cncc(N2CCN(c3ccccc3O)CC2)n1,15.99%
Cc1cccc2nc(CN3CCCC3Cn3cncn3)cn12 (stereo not shown),-2.44%
Cc1ccc(O)c(CNC2CCCN(Cc3noc(C4CC4)n3)C2)n1 (stereo not shown),-3.795%
Cc1nccn1-c1cc(CNC(=O)CCNC(=O)OC(C)(C)C)ccn1,-63.26%
O=C(Nc1ccncc1)N(CCO)Cc1ccsc1,7.021%
CNc1ncc(CN2CCC(c3nnsc3S(C)(=O)=O)CC2)cn1,-4.262%
Cc1cc(C)c(CNC(=O)NCC2COc3ccccc3C2)c(=O)[nH]1 (stereo not shown),4.851%
CCCc1nc(Nc2cccc(C(N)=O)c2)c2c(n1)c(C)nn2CC,-17.68%
Cc1nc(Nc2nnc(C)s2)cc(C2CCCN2C)n1 (stereo not shown),-13.78%
COC(=O)N1CCCN(C(=O)c2cccc3cccnc23)CC1,6.138%
Cc1cc(OC(F)F)c(C(=O)N2CCC(N(C)C)CC2)s1,-12.5%
Cc1cc(C2CCCN(C(=O)COc3ccccc3F)C2)n[nH]1 (stereo not shown),-29.44%
COc1ccc(CNC(=O)NC2CCC(O)CC2)c(C(F)(F)F)c1 (stereo not shown),16.14%
Cn1cccc1C(=O)N1CCCC2(CCN(CCN3CCCC3)C2=O)C1.O=C(O)C(F)(F)F (stereo not shown),-23.08%
O=C(Cn1c(=O)oc2ccccc21)NCC1(O)CCc2ccccc2C1 (stereo not shown),-11.94%
CC(CC#N)N(C)Cc1ccc(F)cc1F (stereo not shown),-12.88%
O=C(O)C(c1cccc2c1OCC2)N1CCC(N2CCSCC2)CC1 (stereo not shown),8.397%
O=C(c1ccno1)N1CC(c2nc(-c3ccco3)no2)C1,-9.694%
CN1CC[C@]2(CN(CC3CCOC3)C[C@H]2c2ccccc2)C1=O.O=C(O)C(F)(F)F (stereo partly shown),-23.92%
O=S(=O)(N1CCOCC1)N1CCCCC1CCn1cccn1 (stereo not shown),-41.5%
COCC(=O)N1CCc2nc(NC(C)C)nc(NC(C)C)c2CC1,-75.42%
O=C(O)C(F)(F)F.c1csc(NCc2n[nH]c3c2CCN(CC2CC2)C3)n1,-38.78%
O=C(O)C(F)(F)F.[H][C@@]12CCN(Cc3c(C)noc3C)C[C@]1(C(=O)N1CCCC1)CCO2,-22.78%
O=C(O)C(F)(F)F.O=C(O)C(F)(F)F.[H][C@@]12OCCN(CCOCC)[C@@]1([H])CC[C@H]2OCc1ccccn1,-35.91%
CN1CC2(CCCN(C(=O)c3cnc4ccc(F)cc4c3O)C2)OC1=O (stereo not shown),-14.81%
O=C(NCc1cccc(F)c1)NC1CCCN(c2ncccn2)C1 (stereo not shown),28.51%
Cc1nc(-c2cccc(N3CCC(NC4CCSC4)CC3)c2)cs1 (stereo not shown),15.44%
C1CCCN(CC2CCCN(Cc3noc(C4CC4)n3)C2)CC1 (stereo not shown),63.76%
CC(C)c1nnc(NCc2ccsc2)o1,-14.28%
CN1CCN(C(=O)N2CCCC2)Cc2cccnc21,-27.41%
CCN(CC)Cc1nc2c(o1)CN(S(=O)(=O)c1cccs1)C2.O=C(O)C(F)(F)F,-2.506%
Cc1cc(C)n(C2CN(CC(=O)N(C)Cc3ccc(C)o3)C2)n1,10.2%
CC(CNS(C)(=O)=O)Oc1cccc(Cl)c1 (stereo not shown),-19.79%
Cc1cc(NC(=O)CCN2CCCC2Cn2cncn2)no1 (stereo not shown),11.47%
CCOc1cc(C)nc(N2CCN(C(=O)c3ccncc3)CC2)n1,-21.63%
CNC(=O)[C@@H]1C[C@@H](NC(=O)Cc2nonc2C)CN1Cc1sccc1C,2.28%
Cc1cccc(C(=O)Oc2cc(=O)n3cccc(C)c3n2)c1,-20.38%
CCCS(=O)(=O)NC(=O)c1sc(C2CCCC2)nc1C,7.873%
Cn1nc(C2CCCN(C(=O)Cc3ccsc3)C2)c2nccnc21 (stereo not shown),-26.63%
CCn1ccc(C(=O)N2CCCN(Cc3ccccc3F)CC2)cc1=O,-51.4%
CCN1CC2(CC1=O)CN(C(=O)NC)CCN(S(C)(=O)=O)C2 (stereo not shown),-48.98%
COCC(O)CN1CCC(=O)N(CC(=O)C(C)(C)C)Cc2ccccc21 (stereo not shown),-18.57%
CCc1nc2ccccc2n1C(CC)C(=O)N(C)Cc1nc(C)c[nH]1 (stereo not shown),-33.82%
CCN(CC)C(=O)CSc1nc2nc(C)ccc2o1,-14.44%
Cc1ncsc1C(=O)N1CCCC1c1c(C)nn(C)c1Cl (stereo not shown),-0.8334%
CCC(O)CN1CCN(C(=O)c2ccn(C)c(=O)c2)CC1 (stereo not shown),5.933%
CNS(=O)(=O)c1ccc(CNC(=O)C2CCCN(C)C2)cc1 (stereo not shown),0.5353%
CSCCC(C)(O)CNS(=O)(=O)Cc1ccc(F)cc1 (stereo not shown),-23.76%
COCCCN(Cc1ccccn1)S(=O)(=O)N(C)C,-93.71%
COc1nc2ccn(CCc3cnccn3)c(=O)c2cc1C#N,-72.36%
COc1ccc(C)cc1-n1cnnc1C1CCCN(C)C1 (stereo not shown),-13.54%
CCN(c1ccc(C(=O)NCCCN2CCCC2)cc1)S(=O)(=O)CC,-17.7%
O=C(CS(=O)(=O)Cc1csc(-c2ccc(F)cc2)n1)NCC1CC1,-7.255%
c1ccc(-c2noc([C@@H]3Cc4nc[nH]c4CN3)n2)cc1,-0.5339%
CC(=O)c1cccc(NC(=O)CN2CCCCC2C2OCCO2)c1 (stereo not shown),-1.378%
CSc1cccc(CN(C)C(=O)CN2CCN(c3ncccn3)CC2)c1,1.78%
CC(C)NS(=O)(=O)c1cc(C(=O)O)cc(-c2ccccc2C#N)c1,-78.06%
Cc1c(CN2CCCCC2)c(O)n(CCO)c(=O)c1C#N,0.9497%
COCCCN(Cc1ccccn1)S(=O)(=O)Cc1ccccc1,-5.709%
CCC(=O)N1CCC2(CC1)C(=O)N(C)CCN2Cc1csc(C)n1.O=C(O)C(F)(F)F,1.423%
Cc1cc(NCCO)nc(N2CCCC2)c1C#N,-26.02%
COCC1(NC(=O)C(c2ccc(F)cc2)N(C)C)CCCC1 (stereo not shown),-19.74%
O=C(NCCN1CCOC1=O)c1cnc(-c2cccnc2)nc1,0.3481%

10 of the entries, repeated:

SMILES,percent effect
O=C(O)C(F)(F)F.O=C(O)C(F)(F)F.[H][C@@]12OCCN(CCOCC)[C@@]1([H])CC[C@H]2OCc1ccccn1,-35.91%
O=C(NCCN1C(=O)c2ccccc2C1=O)c1scnc1Cl,-2.342%
Cc1cc(C2CCCN(C(=O)COc3ccccc3F)C2)n[nH]1 (stereo not shown),-29.44%
O=C(c1ccccc1OCC1CC1)N1CCCC1Cn1cccn1 (stereo not shown),-8.641%
Cc1cc(OC(F)F)c(C(=O)N2CCC(N(C)C)CC2)s1,-12.5%
Cn1cccc1C(=O)N1CCCC2(CCN(CCN3CCCC3)C2=O)C1.O=C(O)C(F)(F)F (stereo not shown),-23.08%
COc1nc2ccn(CCc3cnccn3)c(=O)c2cc1C#N,-72.36%
CCOc1cc(C)nc(N2CCN(C(=O)c3ccncc3)CC2)n1,-21.63%
CNc1ncc(CN2CCC(c3nnsc3S(C)(=O)=O)CC2)cn1,-4.262%
CC(C)c1cc(NCC(O)CO)n2nccc2n1 (stereo not shown),8.25%